Series [1] in a line: Fmoc solid-phase peptide synthesis; Wang resin. To be noted: whole synthesis, run 2.
Series [2] in a line: general procedure: Fmoc solid-phase peptide synthesis; Wang resin. To be noted: whole synthesis, run 1.

The source of these data is patent publication US20170029467 (published 2017).

Consider “D-Phe^1-Pro^2-Arg(Pbf)^3-Pro^4-Gly^5-Gly^6-Gly^7-Gly^8-Asn(Trt)^9-Gly^10-Asp(OtBu)^11-Phe^12-Glu(OtBu)^13-Glu(OtBu)^14-Ile^15-Pro^16-Glu(OtBu)^17-Glu(OtBu)^18-Tyr(tBu)^19-Leu^20”, for which the “crude HPLC purity” value in series [1] stood at 87%; in series [2] it was 85%.
